Results taken from patent publication US12258339B2, “Macrocyclic complexes of alpha-emitting radionuclides and their use in targeted radiotherapy of cancer” (Cornell University, priority 2018, dated 2025).

Test: ^225Ac radiolabeling of macropa and DOTA (radio-TLC)
Type: physicochemical
Conditions: 5 min; for ^225Ac radiolabeling: ligand 0.59 μM, RT; for ^225Ac complexed: ligand 59 μM, ^225Ac 26 kBq, 0.15 M NH4OAc pH 5.5-6, RT

Row | Compound | ^225Ac radiolabeling | ^225Ac complexed
1 | O=C(O)CN1CCN(CC(=O)O)CCN(CC(=O)O)CCN(CC(=O)O)CC1 [DOTA, 1,4,7,10-tetraazacyclododecane-1,4,7,10-tetraacetic acid, reference compound] | failed to form a complex | 10%
2 | O=C(O)c1cccc(CN2CCOCCOCCN(Cc3cccc(C(=O)O)n3)CCOCCOCC2)n1 [macropa, N,N′-bis[(6-carboxy-2-pyridil)methyl]-4,13-diaza-18-crown-6] | complete | complexed all the ^225Ac
